Record: PubChem BioAssay AID504774 (Drosophila RNAi Screening Center, 2011)
In all, the deposit lists about 23,000 reagents; this is an unselected part of those with a known target gene and a result. 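Values are quantile-normalised luminescence on an arbitrary scale; higher means more cells surviving MMS.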 Names joined by + are all predicted targets of the reagent. Reagent sequences are not shown.

- Purpose: 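Genes required for cells to withstand methyl methanesulphonate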 (primary screen)
- Cells: Drosophila Kc167 cells
- Reagent: long dsRNA against Drosophila genes, about 0.25 µg dsRNA per well
- Duration: about 6 days: 3 days knock-down, then 3 days with or without MMS
- Treatment: methyl methanesulphonate 0.004% (w/v) for 3 days after knock-down
- Measurement: 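ATP-dependent luminescence as a measure of live cells in MMS-exposed wells, quantile normalised within each plate, with replicate values also given as a mean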
- Reading the numbers: mean viability with MMS and viability with MMS: higher = more surviving cells after MMS

target	dsRNA	mean viability with MMS	viability with MMS, replicate 1	viability with MMS, replicate 2
Spase25	DRSC19776	3.61e6	4.21e6	3.96e6
CAH1 + Adat1	DRSC02009	3.46e6	4.11e6	3.71e6
CG17110	DRSC15173	3.71e6	4.15e6	4.26e6
blo	DRSC05937	3.59e6	4.11e6	4.04e6
Ggt-1	DRSC19993	3.66e6	4.20e6	4.14e6
CG13670	DRSC10029	3.41e6	3.89e6	3.83e6
CG8584	DRSC07217	3.49e6	3.93e6	4.01e6
CG1137	DRSC12529	3.49e6	3.97e6	3.95e6
Rap2l	DRSC04646	3.64e6	4.18e6	4.08e6
CG6867	DRSC20013	3.66e6	4.02e6	4.24e6
CG13041	DRSC09922	3.51e6	3.86e6	4.09e6
CG31751	DRSC02464	3.49e6	3.92e6	4.00e6
CG31751	DRSC02465	3.40e6	3.92e6	3.75e6
crc	DRSC03513	3.37e6	3.85e6	3.73e6
Zw	DRSC20303	3.49e6	3.92e6	3.98e6
Mlc-c	DRSC18683	3.49e6	4.13e6	4.25e6
CG16974	DRSC02551	3.80e6	4.25e6	4.38e6
Gba1b	DRSC21531	3.54e6	4.10e6	3.95e6
Ppt2	DRSC02786	3.54e6	4.12e6	3.93e6
gammaSnap1	DRSC04686	3.59e6	4.03e6	4.11e6
Aladin	DRSC18121	3.76e6	4.47e6	3.94e6
CG31407	DRSC12761	3.52e6	4.13e6	3.87e6
CG1354	DRSC17902	3.50e6	4.03e6	3.90e6
t	DRSC17815	3.59e6	4.03e6	4.08e6
CG11756	DRSC19424	3.61e6	4.21e6	3.95e6
lcs	DRSC20580	3.53e6	4.02e6	4.00e6
Obp28a	DRSC03394	3.57e6	4.01e6	4.07e6
Rheb	DRSC12148	3.41e6	3.80e6	3.89e6

4 entries from above, showing only “viability with MMS, replicate 2”.
CG8584 [DRSC07217]: 4.01e6
CG1137 [DRSC12529]: 3.95e6
Rap2l [DRSC04646]: 4.08e6
CG6867 [DRSC20013]: 4.24e6
